Results reported in article PMC9421128.
These are yes or no findings as the source states them, for the method shown. In cells and extracts the contact can be indirect. Some entries that bind do so weakly or less than the wild type.

Sequences of proteins named here, by UniProt entry; tags and fusion partners are left off. Residues count along the entry.
UniProt Q14258: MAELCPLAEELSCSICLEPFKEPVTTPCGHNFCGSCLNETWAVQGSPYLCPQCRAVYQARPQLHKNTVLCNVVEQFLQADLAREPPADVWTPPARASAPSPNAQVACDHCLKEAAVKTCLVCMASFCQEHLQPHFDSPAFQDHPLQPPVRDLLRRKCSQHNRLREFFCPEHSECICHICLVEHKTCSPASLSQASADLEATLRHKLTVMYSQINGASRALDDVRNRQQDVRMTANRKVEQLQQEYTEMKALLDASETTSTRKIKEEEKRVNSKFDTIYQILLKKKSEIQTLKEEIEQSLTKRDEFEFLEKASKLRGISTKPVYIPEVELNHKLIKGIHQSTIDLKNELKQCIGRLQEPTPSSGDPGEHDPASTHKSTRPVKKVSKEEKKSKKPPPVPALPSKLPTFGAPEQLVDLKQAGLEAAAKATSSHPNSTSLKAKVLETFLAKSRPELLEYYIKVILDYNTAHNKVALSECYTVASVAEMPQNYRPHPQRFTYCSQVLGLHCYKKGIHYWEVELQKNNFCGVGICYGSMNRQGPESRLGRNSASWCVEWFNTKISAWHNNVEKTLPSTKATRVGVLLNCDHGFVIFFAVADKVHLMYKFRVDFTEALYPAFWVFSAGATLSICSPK
UniProt Q997F2: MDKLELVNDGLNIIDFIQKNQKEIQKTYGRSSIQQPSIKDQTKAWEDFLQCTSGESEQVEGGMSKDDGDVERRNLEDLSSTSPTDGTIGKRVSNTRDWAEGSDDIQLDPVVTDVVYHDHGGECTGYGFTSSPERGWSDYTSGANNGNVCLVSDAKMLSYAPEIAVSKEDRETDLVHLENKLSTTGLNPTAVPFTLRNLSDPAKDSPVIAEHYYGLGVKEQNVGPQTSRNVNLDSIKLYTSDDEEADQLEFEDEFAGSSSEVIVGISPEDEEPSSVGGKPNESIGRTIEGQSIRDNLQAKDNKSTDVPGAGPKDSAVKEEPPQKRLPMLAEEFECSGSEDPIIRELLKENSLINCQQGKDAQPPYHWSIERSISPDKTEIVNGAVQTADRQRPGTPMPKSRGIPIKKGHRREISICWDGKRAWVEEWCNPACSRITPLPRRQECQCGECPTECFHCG
UniProt O95786, residues 1-283: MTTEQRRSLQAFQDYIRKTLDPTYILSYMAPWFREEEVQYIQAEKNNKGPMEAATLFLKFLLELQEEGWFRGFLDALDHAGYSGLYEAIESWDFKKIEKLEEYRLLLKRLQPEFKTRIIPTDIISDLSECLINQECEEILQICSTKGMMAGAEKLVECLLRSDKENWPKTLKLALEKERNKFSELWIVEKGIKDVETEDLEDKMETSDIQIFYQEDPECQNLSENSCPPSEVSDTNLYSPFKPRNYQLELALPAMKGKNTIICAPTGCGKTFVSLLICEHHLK

Key:
Assay in all cases: co-IP
[1] = target: V5-tagged TRIM25 (V5-TRIM25), expressed in HEK293T (human) (UniProt Q14258)
[2] = target: Nipah virus (NiV) V protein (Nipah virus) (UniProt Q997F2)
[3] = target: V5-tagged RIG-I CARD (V5-RIG-I CARD), expressed in HEK293T (human) (UniProt O95786)

Row | Substance | binding [2] | other results
1 | FLAG-tagged RIG-I CARD (FLAG-RIG-I CARD), expressed in HEK293T (from UniProt O95786 1-283) (domain or fragment) | – | binding [1]: binds
2 | V5-tagged RIG-I CARD (V5-RIG-I CARD), expressed in HEK293T (from UniProt O95786 1-283) (domain or fragment) | binds | –
3 | V5-tagged TRIM25 (V5-TRIM25), expressed in HEK293T (from UniProt Q14258 1-630) (enzyme) | binds | –
4 | FLAG-TRIM25, expressed in HEK293T (from UniProt Q14258 1-630) (enzyme) | – | binding [3]: binds
